Measurements from patent US20210079400A1 (CZ BIOHUB SF, published 2021).
No constants are given. Whether binding was seen depends on the method and setting. Binding seen in cells or lysates may run through a third protein. Some binding calls cover weakened binding; strength is not graded here.

Molecular target: T1, BMPR2 (human, on breast cancer cells) (human, UniProt Q13873 27-1038)
T1 construct: whole, on cells; The PDX cells are described as human breast tumor cells; also called BMP Receptor 2
T1 sequence (looked up): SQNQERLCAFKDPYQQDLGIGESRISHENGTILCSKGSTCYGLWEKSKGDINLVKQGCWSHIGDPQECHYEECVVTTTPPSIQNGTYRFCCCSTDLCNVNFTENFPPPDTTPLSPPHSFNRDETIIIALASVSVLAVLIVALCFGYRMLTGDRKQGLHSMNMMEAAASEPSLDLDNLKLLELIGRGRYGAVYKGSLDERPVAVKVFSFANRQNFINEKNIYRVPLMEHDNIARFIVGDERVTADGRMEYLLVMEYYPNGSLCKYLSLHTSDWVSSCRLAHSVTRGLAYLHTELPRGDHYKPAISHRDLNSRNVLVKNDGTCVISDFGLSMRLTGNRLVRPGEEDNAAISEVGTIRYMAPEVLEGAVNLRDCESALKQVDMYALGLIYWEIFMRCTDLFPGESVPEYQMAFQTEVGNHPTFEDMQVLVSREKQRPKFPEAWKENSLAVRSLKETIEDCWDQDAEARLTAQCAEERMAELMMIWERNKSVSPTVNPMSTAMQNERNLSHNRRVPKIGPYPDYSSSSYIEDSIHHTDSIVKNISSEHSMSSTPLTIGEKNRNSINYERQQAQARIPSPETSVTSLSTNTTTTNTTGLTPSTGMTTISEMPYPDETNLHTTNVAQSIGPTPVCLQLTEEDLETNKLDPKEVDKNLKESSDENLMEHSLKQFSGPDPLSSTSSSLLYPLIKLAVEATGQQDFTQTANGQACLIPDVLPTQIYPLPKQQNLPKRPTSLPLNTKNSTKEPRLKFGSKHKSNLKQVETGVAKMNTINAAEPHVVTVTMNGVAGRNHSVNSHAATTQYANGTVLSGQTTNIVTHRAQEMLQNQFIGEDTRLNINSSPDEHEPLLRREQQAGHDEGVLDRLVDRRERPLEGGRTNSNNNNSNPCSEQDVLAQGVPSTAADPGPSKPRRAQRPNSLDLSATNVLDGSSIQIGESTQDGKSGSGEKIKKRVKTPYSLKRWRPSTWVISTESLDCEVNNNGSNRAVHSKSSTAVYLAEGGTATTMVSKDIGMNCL
Assay: Proximity Ligation on sorted breast cancer PDX cells
From the text: Next, we examined the interaction of LEFTY-BMPR2 and BMP7-BMPR2 in different subpopulations of breast cancer cells. Tumor cells were isolated from 3 established breast cancer PDXs using flow cytometry. These models were characterized to follow the cancer stem cell paradigm. The cells were sorted based on EpCAM and CD49f cell surface markers. Different protein-protein interactions were quantified by Proximity Ligation and the cells were also simultaneously stained for pSMAD2 or pSMAD5. As shown in FIGS. 14A-14D, in the tumorigenic population the LEFTY-BMPR2 interaction is predominant, whereas the BMP7-BMPR2 interaction is predominant in non-tumorigenic population.

binding: binds
B1: LEFTY (human, endogenous in breast cancer cells) (ligand, UniProt O75610 77-366, looked up)
chain: RFSQSFREVAGRFLALEASTHLLVFGMEQRLPPNSELVQAVLRLFQEPVPKAALHRHGRLSPRSARARVTVEWLRVRDDGSNRTSLIDSRLVSVHESGWKAFDVTEAVNFWQQLSRPRQPLLLQVSVQREHLGPLASGAHKLVRFASQGAPAGLGEPQLELHTLDLGDYGAQGDCDPEAPMTEGTRCCRQEMYIDLQGMKWAENWVLEPPGFLAYECVGTCRQPPEALAFKWPFLGPRQCIASETDSLPMIVSIKEGGRTRPQVVSLPNMRVQKCSCASDGALVPRRLQP
